In all, about 320,000 compounds went through this assay and about 2,100 (0.66%) were called active. Inconclusive results, whose numbers are uncertain, are shown with a selection of clear calls. Calls come from the whole dose curve; as a rule, active = well fitted inhibition curve with a large enough effect in the signal ratio, with a control signal flat (not every such curve was filed as active); inconclusive = small, poorly fitted or top-dose-only effect, or effect the other way, or a change in a side signal; inactive = flat fitted curve, though single readings scatter; the % refers to the signal ratio. Potencies of inconclusive entries are doubtful fits and often do not repeat.
Assay: qHTS Assay for Lipid Storage Modulators in Drosophila S3 Cells
Conditions: BODIPY lipid droplet fluorescence, 18-24 h, cells fed with added oleic acid; lipid storage change, negative = inhibition: at 46.1 µM (top of the series) unless noted
How it was run: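 Laser-scanning cytometry quantifies lipid droplet accumulation (500–530 nm total intensity; droplet/cell object ratio) in oleic acid-fed (400 uM added) Drosophila S3 cells treated with a concentration series. 20 uM Triacsin C defined 100% inhibition.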
% is set by controls: 0 for no effect and ±100 for the full control effect; potency is the fitted concentration of half-maximal effect.

Structure (SMILES)	Potency	lipid storage change, negative = inhibition
O=C(COC(=O)c1cc([N+](=O)[O-])ccc1N1CCOCC1)Nc1cc(F)ccc1F	inconclusive: 0.0052 µM [falling, full curve, poor fit]	–
COC(=O)c1c(NC(=O)c2ccc(C)cc2)sc(Cc2ccccc2)c1C	–	inconclusive: 35.6%
O=C(NCCN1CCOCC1)c1c[nH]c2ccc(S(=O)(=O)N3CCOCC3)cc2c1=O	–	inconclusive: 0.478%
Cc1cc[n+](CC(=O)N2CCCc3ccccc32)cc1	–	inactive: -6.44%
CCOC(=O)[C@@H]1[C@H]2COc3ccc(Br)cc3[C@@H]2N2C(=O)N(c3cccc(F)c3)C(=O)[C@@]12C	inconclusive: 4.11 µM [activator, full curve, poor fit]	–
COCCNC(=O)/C(C#N)=C\c1ccc(CNS(=O)(=O)c2ccc(C)cc2)o1	inconclusive: 10.3 µM [falling, partial curve]	–
COCCCn1c(=O)c2sccc2n(Cc2ccccc2C)c1=O	–	inconclusive: 113%
O=C(c1nc2nc(-c3ccccc3)cc(C(F)(F)F)n2n1)N1CCCCC1	inconclusive: 25.9 µM [activator, partial curve]	–
Cc1cccc(NC(=O)c2ccccc2NC(=O)C(C)(C)C)n1	–	inconclusive: 16.1%
COC(=O)c1ccc(COc2ccc(/C=C(\C#N)c3nc4ccccc4[nH]3)cc2OC)o1	–	inconclusive: -43.9%
CC1(C)CC(CC(=O)O)CC(C)(C)N1	–	inactive: -1.16%
C/C(=N\NC(=O)CSc1nc(C)cc(C)n1)c1cccs1	–	inconclusive: 26%
CN=C1C=C/C(=N/N=c2\ccn(O)cc2C)C=C1C	–	inconclusive: 7.49%
COc1cccc(C2C(C(=O)c3cccs3)=C(O)C(=O)N2CCN2CCOCC2)c1 (centres undefined)	–	inconclusive: -17.3%
COc1cccc2sc(Nc3nc(-c4ccccn4)cs3)nc12	–	inconclusive: -8.83%
CC(=O)Cc1c(C(=O)O)c(C)nn1-c1ccccc1	–	inconclusive: 6.66%
O=C(CSCc1ccc([N+](=O)[O-])cc1)Nc1ccc(S(=O)(=O)N2CCCCCC2)cc1	–	inconclusive: -29.1%
Cc1nnc(SCC(=O)N(CC(C)C)C2CCS(=O)(=O)C2)s1 (centres undefined)	–	inconclusive: 34.2%
N#Cc1ccc(Oc2cccc(C(=O)O)c2)cc1C#N	inconclusive: 6.51 µM [falling, single point]	–
O=C1CCN(S(=O)(=O)c2ccccc2)N1	–	inconclusive: 6.13%
CCN1CCN(c2c(Cl)cccc2NC(=O)c2ccc([N+](=O)[O-])cc2)CC1	–	inconclusive: 16.7% [at 9.22 µM]
N#CC1=C(N)Oc2cc(O)ccc2C1c1ccncc1 (centres undefined)	inconclusive: 18.4 µM [falling, single point]	–
Cc1c(NC(=O)c2ccc3c(c2)OCO3)cccc1-c1nc2ccccc2o1	inconclusive: 0.0651 µM [rising, full curve, poor fit]	–
CCn1c(COc2ccc(=O)n(-c3ccccc3)n2)nnc1SCc1cccc(OC)c1	–	inconclusive: 15.2%
CCOc1ccccc1OCCNC1CCCC1	–	inconclusive: 7.73%
Cc1ccc(C(=O)N2CCCC(c3ccc(Cl)cc3)=N2)cc1	inconclusive: 0.092 µM [falling, full curve, poor fit]	–
O=C(/C=C/c1ccccc1)NCCSCc1ccccc1	inconclusive: 29.1 µM [falling, single point]	–

Structure (SMILES)	Potency	lipid storage change, negative = inhibition
O=C(NCCc1ccccc1)C1CCN(C2CCN(Cc3ccc(CO)o3)CC2)CC1	–	inconclusive: 9.18%
CCN(CC)CCNC(=O)c1ccc(NC(C)=O)cc1	–	inconclusive: 3.91%
Fc1ccc(CN2CCN(C(=S)NCCc3ccccc3)CC2)c(Cl)c1	–	inconclusive: -26.6%
COc1ccc(C(=O)Nc2cccc(NC(=O)c3cccs3)c2)cc1	inconclusive: 16.4 µM [falling, partial curve]	–
Nc1nnc(SCC(=O)OCC(=O)Nc2ccccc2F)s1	–	inconclusive: -23.8%
Nc1nc(SCC(=O)N2CCc3ccccc3C2)[nH]c(=O)c1-c1ccccc1	inconclusive: 2.31 µM [activator, partial curve]	–
Cc1ccccc1OCc1ccc(C(=O)N2CC(C)OC(C)C2)o1 (centres undefined)	active: 32.6 µM	–
Cc1occc1C(=O)OCC(=O)Nc1ccc(F)cc1	–	inconclusive: 18.5%
O=[N+]([O-])c1ccc(/C=C/c2ccc3cccc([N+](=O)[O-])c3n2)cc1	–	inconclusive: -21.1%
COc1cc(C(=O)N2CCCN(c3nc4cc(C)ccc4cc3C#N)CC2)cc(OC)c1OC	–	inconclusive: -10.3%
O=S(=O)(c1cccc(S(=O)(=O)N2CCCC2)c1)N1CCCCC1	–	inconclusive: -39.3%
Cc1cc2ccccn2c1C(=O)c1ccc(C#N)cc1	inconclusive: 13 µM [falling, single point]	–
O=c1nc(/C=C/c2cc([N+](=O)[O-])ccc2Cl)cc(C(F)(F)F)[nH]1	–	inconclusive: -33.7%
Clc1ccccc1-c1nn2c(Cn3cnc4ccccc43)nnc2s1	–	inconclusive: 20.4%
N#Cc1ccc(C[C@H](C(=O)O)N2C(=O)c3ccc(C(=O)O)cc3C2=O)cc1	–	inconclusive: -7.26%
CCOc1ccc(NC(=O)CSc2n[nH]c(N)n2)c([N+](=O)[O-])c1	inconclusive: 0.517 µM [activator, partial curve, poor fit]	–
CCOc1ccc(-c2nc(CSCC(=O)NC3CCCc4ccccc43)c(C)o2)cc1 (centres undefined)	–	inconclusive: -11.2%
CCOc1ccc(/C(O)=C2/C(=O)C(=O)N(CCOCCO)C2c2ccccc2)cc1 (centres undefined)	inconclusive: 23.1 µM [falling, single point]	–
CC(=O)c1c(-c2ccccc2)[nH]c2ccccc12	–	inconclusive: -17.3%
COc1ccccc1C1=CC(=O)CC(C)(C)C1=O	inconclusive: 0.058 µM [falling, partial curve, poor fit]	–
O=[N+]([O-])c1cc(/C=N/O)ccc1Oc1cccc(Cl)c1	–	inconclusive: -41%
CCOc1ccccc1NC(=S)NC1CCCCC1	–	inconclusive: 5.64%
Cc1ccc(S(=O)(=O)Cc2ccc(C(=O)N3CCN(c4cccc(C)c4C)CC3)o2)cc1	–	inconclusive: -36.9%
CCC(=O)Nc1cccc(NC(=O)c2cccc([N+](=O)[O-])c2C)c1	inconclusive: 0.731 µM [falling, full curve]	–
CCOC(=O)c1c(NC(=O)CSc2c[nH]c3ccccc23)sc2c1CCC2	inconclusive: 0.651 µM [activator, full curve]	–
O=C(O)C1Cc2ccccc2CN1C(=O)CCl (centres undefined)	–	inconclusive: -25%
O=c1c2ccccc2oc2ncccc12	–	inconclusive: 61.9%

An excerpt from above in order of SMILES length, rising.
Structure (SMILES)	Potency	lipid storage change, negative = inhibition
COc1ccccc1C1=CC(=O)CC(C)(C)C1=O	inconclusive: 0.058 µM [falling, partial curve, poor fit]	–
CC(=O)c1c(-c2ccccc2)[nH]c2ccccc12	–	inconclusive: -17.3%
COc1ccc(C(=O)Nc2cccc(NC(=O)c3cccs3)c2)cc1	inconclusive: 16.4 µM [falling, partial curve]	–
O=C(NCCc1ccccc1)C1CCN(C2CCN(Cc3ccc(CO)o3)CC2)CC1	–	inconclusive: 9.18%

Remaining list, next part:

Structure (SMILES)	Potency	lipid storage change, negative = inhibition
CC(=O)c1cccc(NC(=O)/C=C/c2ccc([N+](=O)[O-])s2)c1	–	inactive: -0.322%
CCOc1ccccc1N(CC(=O)NCCSCc1ccco1)S(=O)(=O)c1ccccc1	–	inconclusive: -27.9%
COc1ccc(CNC(=O)C2=CCN(S(=O)(=O)c3ccc(C)cc3)CC2)cc1	inconclusive: 6.51 µM [falling, single point]	–
CN(CC(=O)Nc1ccc(F)cc1)C(=O)CCc1nc2ccccc2c(=O)[nH]1	–	inconclusive
CC(C)c1ccccc1NC(=O)CN1C(=O)c2ccccc2C1=O	–	inconclusive: 38.8%
O=C(COc1ccc2ccccc2c1)Nc1cccnc1Cl	inconclusive: 6.51 µM [activator, partial curve]	–
Cc1ccc(C(NC(=O)Nc2ccccn2)C(Cl)(Cl)Cl)cc1F (centres undefined)	–	inconclusive: 32%
CCOc1ccc(NC(C)C(=O)N/N=C/c2ccc([N+](=O)[O-])cc2)cc1 (centres undefined)	–	inconclusive: 29.2%
COc1ccc(OC)c(C2=Nn3c(nnc3-c3ccco3)SC2)c1	inconclusive: 0.82 µM [falling, full curve, poor fit]	–
Cc1c(NC(=O)NCc2ccccc2)c(=O)n(-c2ccccc2)n1C	–	inconclusive: 1.58%
CCCNC(=O)C1CC(=O)N(c2ccc(OCc3ccc(F)cc3)cc2)C1 (centres undefined)	inconclusive: 0.651 µM [activator, single point]	–
O=C(COC(=O)Cc1ccc(F)cc1)NC(=O)NC1CCCC1	inconclusive: 0.0326 µM [activator, full curve, poor fit]	–
CCOC(=O)c1ccc(Nc2nc(C)cc(=O)[nH]2)cc1	–	inconclusive: 31.6%
CCOC(=O)C1CCN(CCC(=O)Nc2ccc(Cl)cc2)CC1	–	inconclusive: -128%
Cc1csc(CNC(=O)C2CCC(=O)N(CCc3cccc(F)c3)C2)n1 (centres undefined)	–	inconclusive: -18.7%
CCOC(=O)c1[nH]c2ccccc2c1NC(=O)c1ccc2c(c1)OCO2	–	inconclusive: 52.1%
Cc1sc2ncnc(SCC(=O)N3CCOCC3)c2c1C	–	inactive: 11.6%
COc1ccc(OC)c(N=C(C)C2=C(O)COC2=O)c1	inconclusive: 20.6 µM [activator, single point]	–
COCc1c(C(=O)OC/C(O)=C(\C#N)c2nc3ccccc3[nH]2)oc2ccccc12	–	inconclusive: 38.4%
Cc1c(C)n2c(SCC(=O)NC3CCCC3)nnc2[nH]c1=O	–	inconclusive: -22.4%
CC(C)CCC(O)(c1ccccc1)C(CN1CCOCC1)c1ccccc1 (centres undefined)	–	inconclusive: 21.4%
O=C(COc1ccccc1-c1ccccc1)NCc1ccco1	–	inconclusive: 10.5%
CCOC(=O)N1CCN(C(=O)Cc2ccc(C)cc2)CC1	–	inconclusive: 22.6%
Cc1ccc(CN2CCN(C3CCC3)CC2CCO)cc1 (centres undefined)	–	inconclusive: 25.2%
O=C(CNc1cccc2ccccc12)N/N=C/c1cccc(Oc2ccccc2)c1	–	inconclusive: 9.86%

Source: PubChem BioAssay AID2685 (National Center for Advancing Translational Sciences (NCATS), 2010)
